Data from PubChem BioAssay AID1347426 (Functional Genomics Laboratory (NCATS/FGL), 2020).
The campaign covered roughly 31,000 sequences. About 1,400 (4.5%) were called active.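 The calls were made as follows: active = median seed-adjusted z-score above 1 or below -1; inactive = the rest.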 The list shows a part of the results.

test: Novel Modifiers of Survival Motor Neuron (SMN) Protein: Gene Identification via Genome-wide siRNA Screen; conditions: HEK293T SMN2-luciferase reporter, siRNA knockdown, 72 h; actives lie on both sides;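 also: luminescence tracks full-length SMN protein made from the SMN2 reporter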
Method in brief: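 HEK293T cells stably expressing an SMN2 splicing/cDNA-luciferase reporter were reverse-transfected with a druggable-genome siRNA library and read by luminescence at 72 hours; hits defined by MAD score above 1.0 or below -1.0.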

| Sequence | median seed-adjusted z-score |
| --- | --- |
| GCAAUAUUUCGAGCAGUUUTT against MSI2 | inactive: 0.582 |
| GGAUAAUAGACAGCAAGUUTT against AKAP13 | inactive: 0.654 |
| GAGCUUUACUUGUCUGCGATT against TYRO3 | inactive: -0.0161 |
| UGAAGAUUGUCGAACAGGATT against GABRG2 | inactive: -0.479 |
| GAAUCAGAUUUGGACCAGATT against CDH22 | inactive: -0.57 |
| GACCCAAAGCGGCAGCAAATT against KLRC2 | inactive: -0.472 |
| GGAAAGCUUUGAAGGGCAATT against PSMA2 | inactive: -0.54 |
| GGUUUGCUCUCUUACUACATT against OSBP2 | inactive: -0.568 |
| CUUUAUGUAUUUUCGCAUATT against ALDH3A2 | inactive: -0.0751 |
| CCAGUGCUCCCGAAACUGATT against KRTAP5-5 | active: -1.07 |
| GCUCUGUCGAGGUACCAGATT against RAB7B | inactive: 0 |
| GAGCGAACAUUGAGACGUATT against ARID4A | inactive: 0.601 |
| CGCAUAUCCCGAUAUAACATT against UBE4B | inactive: -0.0364 |
| GCGGAAAUGUGAGCGUGUATT against TRIM28 | inactive: -0.718 |
| GAAGGGACAUUACUACUAUTT against TDRKH | inactive: -0.434 |
| CCAUUGAACACUAACCCAATT against ADD1 | inactive: -0.0129 |
| UGGUGACUCUCAUUUCGCATT against BCAP31 | inactive: 0.277 |
| GCAACCAUGUGAAUCACUATT against MIZF | inactive: 0.365 |
| CCCUGAAGAUAUUUAGAGATT against PDIA3 | inactive: -0.619 |
| ACAUCAUGCUGGACGUGCATT against ACCN3 | inactive: -0.114 |
| AGUUGUAACCUGAUGGUAATT against HSPA1B | inactive: 0.302 |
| GGCUGAAUUUGGUACACUATT against MAN1A2 | inactive: 0.554 |
| GGAAAAUUCCUCUACAUCUTT against NPAS1 | inactive: -0.386 |

Fetched one by one from above:

| Sequence | median seed-adjusted z-score |
| --- | --- |
| GCUCUGUCGAGGUACCAGATT against RAB7B | inactive: 0 |
| CGCAUAUCCCGAUAUAACATT against UBE4B | inactive: -0.0364 |
| CCAUUGAACACUAACCCAATT against ADD1 | inactive: -0.0129 |
| AGUUGUAACCUGAUGGUAATT against HSPA1B | inactive: 0.302 |
| CCAGUGCUCCCGAAACUGATT against KRTAP5-5 | active: -1.07 |

Later entries:

| Sequence | median seed-adjusted z-score |
| --- | --- |
| UCCGCUACCUGGGUGUUGATT against DUSP26 | inactive: 0.204 |
| GUACCUGCAGAAUAAUAAATT against S100A8 | inactive: -0.337 |
| GGGACGAUGUUAAGUUUCATT against PEX5L | inactive: 0.0982 |
| GAAUGAAGAUGAACGGGAATT against EIF2S1 | inactive: -0.175 |
| GAACUGCUACCCGAAAUUATT against NASP | inactive: 0.133 |
| CAUCCUGGAUAGCUCAAAATT against CTBS | inactive: 0.0442 |
| GGAACAAGAUGGAAGAGAATT against DFFB | inactive: 0.242 |
| CUAUCAUAGCUGAUCGGUUTT against SLC8A1 | inactive: 0.221 |
| GGUUUAUCCUGGGCUCUUUTT against SLCO3A1 | inactive: -0.0387 |
| GCUUUGUGCUGGUCUACGATT against RERG | inactive: 0.59 |
| CCCUUACUUUGCUAAGCAATT against GNPNAT1 | inactive: 0.313 |
| AGAUGAAAGAGGACGCGAATT against TNNC2 | inactive: -0.773 |
| GAACGGCUGUAGUAGAUCUTT against RARS2 | inactive: -0.0247 |
| GCUGCUGUCCAAUCCCAGATT against GRN | inactive: -0.767 |
| GCUCCCAGAUUGAUAUCUATT against EXOSC4 | inactive: 0.443 |
| GAGUGGAGCGUACAUCCUATT against ZXDA | inactive: -0.0748 |
| CCUUAUGUAUAAUGAAACATT against RHCE | inactive: 0.488 |
| GCAGUAGACAAGUCUGACATT against SLC1A1 | inactive: 0.0967 |
| ACAUCCAGCCUAAACUCUATT against STON1-GTF2A1L | inactive: 0.294 |
| CACUCCACUUUUUCAGACATT against BATF2 | inactive: 0.714 |
| UCAGUUUCCUAAUCUGUAATT against QPRT | inactive: 0.15 |
| CCAUUGACCUCUCCGCCUATT against CEBPE | inactive: -0.259 |
| GGUACAUCAUGAUAGAACATT against ABCD2 | inactive: -0.102 |

| Sequence | median seed-adjusted z-score |
| --- | --- |
| GUACUCAUCUUUUACCUAATT against LMBR1L | inactive: 0.349 |
| GGAGGUGUUUGACAAGCGATT against SMPD3 | inactive: -0.0115 |
| AGCCUUCAGUGGUCAGUCATT against ZNF702 | inactive: 0.204 |
| GAUUAAUCCUUCAAUGAUUTT against TAF9B | inactive: -0.0247 |
| CUGUAGAACUAGUCCUUAUTT against PRKRIR | inactive: 0 |
| GGACAGAGCAAAAACUUCUTT against DYRK4 | inactive: -0.824 |
| GCGUUGACCAAGACUCAUATT against TP53BP2 | inactive: 0.157 |
| GAUCUUUCCUCAGUGGAGATT against PARP9 | inactive: -0.526 |
| GAGCUCCAUUGGUAAAUUUTT against ANAPC10 | inactive: 0.946 |
| GCAUGGUACUCUAUAGUCUTT against FAT4 | inactive: -0.363 |
| GAUAUCUUCCAAAACGAAATT against BLM | inactive: -0.0654 |
| GAAUCUGUCUUAGAUCUCATT against PRDM2 | active: 1.12 |
| GGCAGACUCUCUAUGAACATT against TFR2 | inactive: 0.965 |
| CGCACGAUAUUGAGGAGAATT against 9-Sep | inactive: -0.0175 |
| CCAGCACGUUGGAAGACCATT against ZNF808 | inactive: 0.138 |
| CCAUAAAUGCUACGAAUAUTT against EGFR | inactive: 0.263 |
| UGGUGUUGAUCGGAAUCUATT against SLC12A9 | inactive: -0.0853 |
| CAUAACAACUUCUACCGAATT against ABHD6 | inactive: 0 |
| CCUUCGCUAUGCUGACAGATT against KIF4A | inactive: -0.156 |
| CGCUGGAUGUUGCAGGAUATT against TRIM68 | inactive: -0.628 |
| GGAUUGCUACAAGAACUUUTT against FHL1 | inactive: 0.574 |
| GGAAGCAAUUAAUUACACUTT against ARSK | inactive: -0.00229 |
